Measurements taken from patent US20120115877A1, “Facially Amphiphilic Compounds, Compositions, And Uses Thereof In Treating Cancer” (POLYMEDIX, INC., priority 2010, published 2012).
Some entries share one result that the patent states for a list of compounds.

System: 59 different human tumor cell lines
Experiment: NCI-60 DTP human tumor cell line screen, single concentration, mean over panel
Format: cell-based
Settings: single concentration 10 μM, mean over 59 human tumor cell lines; for NCI Screen Mean % Growth: 48 hours, SRB; for mean growth inhibition: 10 µM
Protocol: Several compounds were tested at single concentrations (10 μM) against 59 different human tumor cell lines, representing leukemia, melanoma and cancers of the lung, colon, brain, ovary, breast, prostate, and kidney (see, Table 3). The human tumor cell lines of the cancer screening panel were grown in RPMI 1640 medium containing 5% fetal bovine serum and 2 mM L-glutamine. For a typical screening experiment, cells were inoculated into 96 well microtiter plates in 100 μL at plating densities ranging from 5,000 to 40,000 cells/well depending on the doubling time of individual cell lines. After cell inoculation, the microtiter plates were incubated at 37° C., 5% CO2, 95% air and 100% relative humidity for 24 hours prior to addition of the compounds.
After 24 hours, two plates of each cell line were fixed in situ with TCA, to represent a measurement of the cell population for each cell line at the time of drug addition (Tz). Compounds were solubilized in dimethyl sulfoxide at 400-fold the desired final maximum test concentration and stored frozen prior to use. At the time of drug addition, an aliquot of frozen concentrate was thawed and diluted to twice the desired final maximum test concentration with complete medium containing 50 μg/ml gentamicin. Additional four, 10-fold or ½ log serial dilutions were made to provide a total of five compound concentrations plus control. Aliquots of 100 μl of these different drug dilutions were added to the appropriate microtiter wells already containing 100 μl of medium, resulting in the required final compound concentrations.
Following drug addition, the plates were incubated for an additional 48 hours at 37° C., 5% CO2, 95% air, and 100% relative humidity. For adherent cells, the assay was terminated by the addition of cold TCA. Cells were fixed in situ by the gentle addition of 50 μl of cold 50% (w/v) TCA (final concentration, 10% TCA) and incubated for 60 minutes at 4° C. The supernatant was discarded, and the plates were washed five times with tap water and air dried. Sulforhodamine B (SRB) solution (100 μl) at 0.4% (w/v) in 1% acetic acid was added to each well, and plates were incubated for 10 minutes at room temperature. After staining, unbound dye was removed by washing five times with 1% acetic acid and the plates were air dried. Bound stain was subsequently solubilized with 10 mM trizma base, and the absorbance was read on an automated plate reader at a wavelength of 515 nm. For suspension cells, the methodology was the same except that the assay was terminated by fixing settled cells at the bottom of the wells by gently adding 50 μl of 80% TCA (final concentration, 16% TCA). Using the seven absorbance measurements (time zero, (Tz), control growth, (C), and test growth in the presence of drug at the five concentration levels (Ti)), the percentage growth was calculated at each of the compound concentrations levels. Percentage growth inhibition was calculated as:
[(Ti−Tz)/(C−Tz)]×100 for concentrations for which Ti>/=Tz
[(Ti−Tz)/Tz]×100 for concentrations for which Ti<Tz.

SMILES | NCI Screen Mean % Growth [%] | mean growth inhibition [%]
N=C(N)NCCCCC(=O)Nc1cc(C(F)(F)F)cc(NC(=O)Nc2ccc(NC(=O)Nc3cc(C(F)(F)F)cc(NC(=O)CCCCNC(=N)N)c3OC3CCNC3)cc2)c1OC1CCNC1 (centres unmarked) [Compound B] | < 70 | –
N=C(N)NCCCCC(=O)Nc1cc(C(F)(F)F)cc(NC(=O)c2cc(C(=O)Nc3cc(C(F)(F)F)cc(NC(=O)CCCCNC(=N)N)c3SCCN)ncn2)c1SCCN [Compound C] | < 70 | > 50
NCCCc1cccc(-c2ccc3sc4ccc(-c5cccc(CCCN)c5)cc4c3c2)c1 [Compound D] | < 70 | –
NCCSc1cc(SCCN)c(C(F)(F)F)cc1NC(=O)c1cc(C(=O)Nc2cc(C(F)(F)F)c(SCCN)cc2SCCN)ncn1 [Compound F] | < 70 | > 50
NCCCc1cccc(-c2ccc3oc4ccc(-c5cccc(CCCN)c5)cc4c3c2)c1 [Compound G] | < 70 | > 50
